Data on one substance can be found in PMC4359135.

Chains of the proteins cited; added tags and fusions are not shown. Lines headed by an entry give the natural chain unless they say otherwise; changes in a name come on top.
UniProt Q9BST9: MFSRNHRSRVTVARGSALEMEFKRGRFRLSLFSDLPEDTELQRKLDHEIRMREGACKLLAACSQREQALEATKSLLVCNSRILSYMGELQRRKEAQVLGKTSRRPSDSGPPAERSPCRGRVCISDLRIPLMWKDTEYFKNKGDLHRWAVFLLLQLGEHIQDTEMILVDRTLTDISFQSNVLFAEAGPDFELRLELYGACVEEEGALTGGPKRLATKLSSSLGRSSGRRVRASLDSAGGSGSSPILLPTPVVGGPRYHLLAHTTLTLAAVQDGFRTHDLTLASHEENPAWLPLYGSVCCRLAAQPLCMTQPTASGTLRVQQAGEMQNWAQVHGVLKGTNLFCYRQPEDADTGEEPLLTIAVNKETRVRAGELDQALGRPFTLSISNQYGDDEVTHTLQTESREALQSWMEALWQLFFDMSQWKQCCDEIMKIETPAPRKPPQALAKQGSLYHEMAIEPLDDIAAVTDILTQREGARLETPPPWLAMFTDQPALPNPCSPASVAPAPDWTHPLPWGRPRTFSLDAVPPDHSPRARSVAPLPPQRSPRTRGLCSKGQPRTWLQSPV
UniProt P61586: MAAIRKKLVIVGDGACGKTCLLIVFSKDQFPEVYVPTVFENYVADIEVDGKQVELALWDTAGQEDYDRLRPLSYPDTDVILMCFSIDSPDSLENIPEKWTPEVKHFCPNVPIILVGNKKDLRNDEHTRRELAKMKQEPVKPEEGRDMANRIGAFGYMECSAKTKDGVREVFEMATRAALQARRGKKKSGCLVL

In this assay the target is GST-Rhotekin-Rho-binding-domain (UniProt Q9BST9). Briefly: pull-down; GST fusion proteins as baits; clarified CFBE41o- lysates in LIL buffer (25 mM Tris-HCl pH 7.5, 150 mM NaCl, 5 mM MgCl2, 1% NP-40, 1 mM DTT, 5% glycerol); GTPases loaded with GTP-γS (10 mM EDTA, 0.1 mM GTP-γS, 15 min at 30°C, then 60 mM MgCl2); cells treated before lysis with 10 μM ML141 or 1% DMSO for 30 min; Western blot; only the target purified. For orientation: A western blot detects proteins with antibodies after separation by electrophoresis.

No constants are given. Whether binding was seen depends on the method and setting. Binding seen in cells or lysates may run through a third protein. Binding calls can cover weak binding; strength is not graded here.

With RhoA (from UniProt P61586 1-193), the binding result was “binds”.
